The subject of this assay is RAW 264.7. Description: cell viability (MTT) relative to vehicle control; higher = more viable cells. The note with it: stimulus: HMGB1 5 ug/ml, 18 h.
Setting [1] is: compound concentration: 1 ug/ml.

Each structure is given as a SMILES string. Counter-ions that a name gives are not always drawn. ± gives the standard deviation of the averaged measurements. Some of the results follow. Most values come without repeats; read them as rough.

As a reminder, the cell viability is a read-out of living cells in per cent, often relative to untreated cells. With `CCCCCCCC/C=C\CCCCCCCC(=O)NCCc1ccc(O)c(O)c1` [N-Oleoyldopamine], the cell viability (compound concentration: 3 uM) was 23.7%.
On to `O=NN(CCCl)C(=O)NC1CCCCC1` [Lomustine], for which, under “compound concentration: 3 uM”, the cell viability was 117%.
On the same count and under the same terms, the figure for `CNCCC(Oc1ccccc1OC)c1ccccc1` (stereo not given) [Nisoxetine hydrochloride] is 97.3 ± 10%; for `CNCCC(Oc1ccccc1OC)c1ccccc1` (stereo not given) [Nisoxetine] it is 103%; for `CCCCC(C)(O)C/C=C/[C@H]1[C@H](O)CC(=O)[C@@H]1CCCCCCC(=O)OC` (mixture of isomers) [Misoprostol] it is 119 ± 22%.
Still for that read-out and setting: next, `CC1CNCCN1S(=O)(=O)c1cccc2cnccc12` (stereo not given): 94.6%; `COc1ccccc1O` [Guaiacol]: 102 ± 5.8%; `Cc1cccc(CN2CCN(C(c3ccccc3)c3ccc(Cl)cc3)CC2)c1` (stereo not given) [Meclozine dihydrochloride]: 118%.
In the case of `Cc1cccc(CN2CCN(C(c3ccccc3)c3ccc(Cl)cc3)CC2)c1` (stereo not given), for the setting “compound concentration: 3 uM”, the cell viability amounted to 109%.
Regarding `O=C(O)CCC(=O)Nc1ccc(S(=O)(=O)Nc2nccs2)cc1`, the cell viability (compound concentration: 3 uM) was found to be 98.8%.
For `O=C(O)CCC(=O)Nc1ccc(S(=O)(=O)Nc2nccs2)cc1` [Succinylsulfathiazole], the cell viability (compound concentration: 3 uM) worked out at 110%.
Consider `O=c1oc2c3c4c(cc2c2c1CCC2)CCCN4CCC3` [Coumarin 106], for which, under setting [1], the cell viability came to 91.3%.
Same read-out and setting: next, `CC(C)=CCC/C(C)=C/COc1c2occc2cc2ccc(=O)oc12` [Xanthotoxol geranyl ether]: 118%.
Turning to `COc1cnc(NS(=O)(=O)c2ccc(N)cc2)nc1`, the cell viability (compound concentration: 3 uM) worked out at 102%.
For the compound `COc1cnc(NS(=O)(=O)c2ccc(N)cc2)nc1` [Sulfameter], the cell viability (compound concentration: 3 uM) is 112%.
Regarding `CC(C)Cc1ccc(C(C)C(=O)O)cc1` (racemic) [(±)-Ibuprofen], the cell viability (compound concentration: 3 uM) was found to be 92.3%.
Same read-out and setting: the figure for `CC1CN(S(=O)(=O)c2cccc3cnccc23)CCN1` (stereo not given) is 97.9%; for `CCOC(=O)C1=C[C@]2(CC)CCCN3CCc4c(n1c1ccccc41)[C@@H]32` [Vinpocetine] it is 103 ± 5.2%.
As to `Cn1c(=O)ccn([C@@H]2O[C@H](CO)[C@@H](O)[C@H]2O)c1=O` [3-Methyluridine], under setting [1], the cell viability turned out to be 95.2%.
Regarding `COc1ccc(-c2cc(=O)c3c(O)cc(O[C@@H]4O[C@H](CO[C@@H]5O[C@@H](C)[C@H](O)[C@@H](O)[C@H]5O)[C@@H](O)[C@H](O)[C@H]4O)cc3o2)cc1O`, the cell viability (compound concentration: 3 uM) worked out at 109%.
Take `C=C1C[C@]23C[C@@]1(O)CC[C@H]2[C@@]12C=C[C@H](O)[C@@](C)(C(=O)O1)[C@H]2[C@@H]3C(=O)O` [Gibberellic Acid]: the cell viability under setting [1] turned out to be 80.2%.
As for `O=c1c2cc(O)c(O)cc2oc2cc(O)c([C@@H]3O[C@H](CO)[C@@H](O)[C@H](O)[C@H]3O)c(O)c12` [Mangiferin], the cell viability under setting [1] was determined as 90%.
Take `COc1cc(C(O)C(=O)O)ccc1O` (racemic) [(±)-Vanillylmandelic acid]: where the note is “compound concentration: 3 uM”, the cell viability is 106%.
Regarding `CC(=O)C(C)=O` [2,3-Butanedione], under “compound concentration: 3 uM”, the cell viability stood at 106%.
Same read-out and setting: the figure for `CSc1nc(N)c2ncn([C@@H]3O[C@H](COP(=O)(O)OP(=O)(O)OP(=O)(O)O)[C@H](O)C3O)c2n1` (stereo not given in full) [2-Methylthioadenosine triphosphate tetrasodium] is 92.8%; for `CN1[C@@H](CC(=O)c2ccccc2)CCC[C@H]1C[C@H](O)c1ccccc1` it is 103 ± 6.3%; for `CN1[C@@H](CC(=O)c2ccccc2)CCC[C@H]1C[C@H](O)c1ccccc1` [Lobeline] it is 102%.
With `CN1[C@@H](CC(=O)c2ccccc2)CCC[C@H]1C[C@H](O)c1ccccc1` [Lobeline alpha (-) hydrochoride], the cell viability (compound concentration: 3 uM) was determined as 112%.
For the compound `CN1[C@@H](CC(=O)c2ccccc2)CCC[C@H]1C[C@H](O)c1ccccc1` [alpha-Lobeline hydrochloride], the cell viability (compound concentration: 3 uM) was 93%.
Turning to `CN1[C@@H](CC(=O)c2ccccc2)CCC[C@H]1C[C@H](O)c1ccccc1` [Lobeline hydrochloride], the cell viability under setting [1] worked out at 91.8%.
For the compound `OC[C@@H](O)[C@@H](O[C@@H]1O[C@H](CO)[C@H](O)[C@H](O)[C@H]1O)[C@H](O)[C@@H](O)CO`, the cell viability (compound concentration: 3 uM) was found to be 112%.
Consider `c1ccc2[nH]c(-c3cscn3)nc2c1`, for which, where the note is “compound concentration: 3 uM”, the cell viability was determined as 104%.
Regarding `c1ccc2[nH]c(-c3cscn3)nc2c1` [Tiabendazole], the cell viability (compound concentration: 3 uM) is 81.5%.
Same read-out and setting: next, `NC(=O)NC(=O)Cc1ccccc1`: 112%.
Take `CC1CS(=O)(=O)CCN1/N=C/c1ccc([N+](=O)[O-])o1` (stereo not given) [Nifurtimox]: the cell viability (compound concentration: 3 uM) was 73.6%.
Consider `Cc1ncc([N+](=O)[O-])n1CC(O)CCl` (stereo not given) [Ornidazole], for which the cell viability (compound concentration: 3 uM) turned out to be 100%.
Still for that read-out and setting: the figure for `Cc1ncc([N+](=O)[O-])n1CC(O)CCl` (stereo not given) is 98.8 ± 1.4%.
Regarding `Cc1cc2c(c(O)c1-c1c(C)cc3c(c1O)C(=O)C(O)C3C(C)C)C(=O)C(O)C2C(C)C` (stereo not given), the cell viability under setting [1] came out at 97.3%.
Regarding `CN1C(C(=O)Nc2ccccn2)=C(O)c2sccc2S1(=O)=O`, under “compound concentration: 3 uM”, the cell viability turned out to be 104%.
Still for that read-out and setting: next, `CN1C(C(=O)Nc2ccccn2)=C(O)c2sccc2S1(=O)=O` [Tenoxicam]: 82.45 ± 0.17%; `CN(C)c1ccc2nc3ccc(=[N+](C)C)cc-3sc2c1`: 105%.
Regarding `COc1cc(/C=C/C(=O)N2CCC=CC2=O)cc(OC)c1OC`, the cell viability under setting [1] worked out at 93.6%.
In the case of `COc1ccc(C2C(=O)c3ccccc3C2=O)cc1`, the cell viability (compound concentration: 3 uM) turned out to be 109%.
Still for that read-out and setting: the figure for `Cc1cccc(C)c1NC(=O)C1CCCCN1C` (stereo not given) is 107 ± 9.3%; for `Cc1cccc(C)c1NC(=O)C1CCCCN1C` (stereo not given) [Mepivacaine hydrochloride] it is 92.8%.
With `C=C[C@H]1CN2CC[C@H]1C[C@@H]2[C@@H](O)c1ccnc2ccc(OC)cc12`, the cell viability (compound concentration: 3 uM) was found to be 101%.
The same measure, in the same setting: the figure for `C=C[C@H]1CN2CC[C@H]1C[C@@H]2[C@@H](O)c1ccnc2ccc(OC)cc12` [Quinidine hydrochloride monohydrate] is 105%; for `C=C[C@H]1CN2CC[C@H]1C[C@@H]2[C@@H](O)c1ccnc2ccc(OC)cc12` [Quinidine sulfate] it is 96.5%; for `CNC(=O)[C@H]1O[C@@H](n2cnc3c(NCc4cccc(I)c4)ncnc32)[C@H](O)[C@@H]1O` it is 94%.
Regarding `Cc1c(C(N)=O)cc([N+](=O)[O-])cc1[N+](=O)[O-]`, for the setting “compound concentration: 3 uM”, the cell viability was determined as 104%.
On to `N=C(N)N`, for which the cell viability (compound concentration: 3 uM) was found to be 113%.
Turning to `O=C1CCC(N2C(=O)c3ccccc3C2=O)C(=O)N1` (racemic) [(±)-Thalidomide], the cell viability (compound concentration: 3 uM) is 115%.
On the same count and under the same terms, the figure for `C[C@]12C=CC(=O)C=C1CC[C@@H]1[C@@H]2[C@@H](O)C[C@@]2(C)[C@H]1CC[C@]2(O)C(=O)COP(=O)(O)O` is 121%; for `C[C@]12CC[C@H]3C(=CCc4cc(O)ccc43)[C@@H]1CCC2=O` it is 110%.
In the case of `C[C@]12CC[C@H]3C(=CCc4cc(O)ccc43)[C@@H]1CCC2=O` [Equilin], the cell viability is, setting by setting: under setting [1], 109%; (compound concentration: 3 uM) 92.4%.
As to `O=P(O)(O)C(Sc1ccc(Cl)cc1)P(=O)(O)O` [Tiludronate disodium], the cell viability (compound concentration: 3 uM) was determined as 112%.
Same read-out and setting: next, `Cc1[nH]c(=O)c(C#N)cc1-c1ccncc1`: 94.1%; `Cc1[nH]c(=O)c(C#N)cc1-c1ccncc1` [Milrinone]: 102 ± 10%; `Cc1ccnc2c1NC(=O)c1cccnc1N2C1CC1` [Viramune]: 95.3%.
The same measure, in the same setting: the figure for `CN(C)CCC=C1c2ccccc2CCc2ccccc21` [Amitryptiline hydrochloride] is 89.5%.
Same read-out and setting: the figure for `CN(C)CCC=C1c2ccccc2CCc2ccccc21` is 108%; for `CN(C)CCC=C1c2ccccc2CCc2ccccc21` [Amitriptyline hydrochloride] it is 107%; for `Cn1c(=O)c2[nH]cnc2n(C)c1=O` [Aminophylline] it is 111 ± 13%.
In the case of `Cn1c(=O)c2[nH]cnc2n(C)c1=O` [Aminophylline ethylenediamine], under “compound concentration: 3 uM”, the cell viability was determined as 106%.
As to `CS(=O)(=O)c1ccc(C2=C(c3ccccc3)C(=O)OC2)cc1`, the cell viability (compound concentration: 3 uM) stood at 106 ± 10%.
With `CS(=O)(=O)c1ccc(C2=C(c3ccccc3)C(=O)OC2)cc1` [Rofecoxib], the cell viability (compound concentration: 3 uM) came to 98.9 ± 5.3%.
Same read-out and setting: next, `C=C1C(=O)[C@]23[C@H](CC[C@@H]1[C@@H]2O)[C@]12CO[C@@]3(O)[C@H](O)[C@H]1C(C)(C)CC[C@@H]2O`: 93.1%; `O=C(Nc1ccccc1)c1ccccc1O`: 104%.
Take `CCOc1ccc2oc(=O)c(-c3ccc(O)cc3)c(C)c2c1` [6-Ethoxy-3(4'-hydroxyphenyl)-4-methylcoumarin]: the cell viability under setting [1] was found to be 118%.
Consider `O=c1cccc2n1CC1CC2CN(CC(O)C=Nc2c3ccccc3nc3ccccc23)C1` (stereo not given), for which the cell viability under setting [1] worked out at 89.1%.
With `CN(C)c1cc2c(Nc3ccc4c(cnn4Cc4ccccc4)c3)ncnc2cn1`, the cell viability (compound concentration: 3 uM) was found to be 102%.
As to `CCN(CC)CCOC(=O)C(c1ccccc1)C1CCCCC1` (stereo not given), where the note is “compound concentration: 3 uM”, the cell viability is 113%.
Consider `CCN(CC)CCOC(=O)C(c1ccccc1)C1CCCCC1` (stereo not given) [Drofenine hydrochloride], for which the cell viability (compound concentration: 3 uM) amounted to 117%.
In the case of `COc1cc(-c2oc3ccccc3c(=O)c2O)cc(OC)c1OC` [3-Hydroxy-3',4',5'-trimethoxyflavone], under setting [1], the cell viability stood at 99.9%.
For `COCC1=C(C(=O)OC(C)OC(=O)OC(C)C)N2C(=O)[C@@H](NC(=O)/C(=N\OC)c3csc(N)n3)[C@H]2SC1` (stereo not given in full), for the setting “compound concentration: 3 uM”, the cell viability was determined as 103 ± 3.8%.
On to `OC[C@H]1O[C@@H](Oc2ccc3ccccc3c2)[C@H](O)[C@@H](O)[C@H]1O` [2-Naphthyl-beta-D-galactopyranoside], for which the cell viability under setting [1] was found to be 104%.
For `C=C1C[C@@]23CC[C@H]4[C@@](C)(CCC[C@@]4(C)C(=O)O[C@@H]4O[C@H](CO)[C@@H](O)[C@H](O)[C@H]4O)[C@@H]2CC[C@]1(O[C@@H]1O[C@H](CO)[C@@H](O)[C@H](O)[C@H]1O[C@@H]1O[C@H](CO)[C@@H](O)[C@H](O)[C@H]1O)C3` [Stevioside], the cell viability (compound concentration: 3 uM) came to 92.5%.
As for `CC(C)(C)OC(=O)c1cc2cc3c4c(c2oc1=O)CCCN4CCC3` [Coumarin 338], the cell viability under setting [1] turned out to be 91%.
With `COc1cc(Cc2cnc(N)nc2N)cc(OC)c1OC` [Trimethoprim], under “compound concentration: 3 uM”, the cell viability was 108 ± 9.4%.
For the compound `COc1cc(Cc2cnc(N)nc2N)cc(OC)c1OC`, the cell viability (compound concentration: 3 uM) was determined as 109%.
For the compound `NC(=O)C(=O)O` [Sodium Oxamate], the cell viability (compound concentration: 3 uM) worked out at 103%.
`CO[C@@]1(NC(=O)Cc2cccs2)C(=O)N2C(C(=O)O)=C(COC(N)=O)CS[C@@H]21`: the cell viability (compound concentration: 3 uM) was 107%.
With `CO[C@@]1(NC(=O)Cc2cccs2)C(=O)N2C(C(=O)O)=C(COC(N)=O)CS[C@@H]21` [Cefoxitin sodium salt], for the setting “compound concentration: 3 uM”, the cell viability was determined as 74.6%.
The same measure, in the same setting: the figure for `CC(=O)c1ccc2c(c1)N(CCCN1CCC(CCO)CC1)c1ccccc1S2` [Piperacetazine] is 92.5%.
